Reference: PubChem BioAssay AID652259 (Drosophila RNAi Screening Center, 2013)

- Assay: 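Identify new Wingless signalling regulators in fly cells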 (primary screen)
- Cell system: Drosophila clone 8 imaginal disc epithelial cells
- Reagents: long dsRNA against Drosophila genes
- Treatment: pathway stimulated by co-transfected Wingless expression plasmid
- Measurement: 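Dual luciferase reads per well after Wingless plasmid stimulation: reporter firefly light and Renilla control light; activity is firefly divided by Renilla, a ratio not deposited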
- Scale: firefly reporter light: higher = more Wg reporter light, before normalisation; Renilla control light: higher = more transfected or surviving cells
- Call rule: 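Strong candidates differ from their plate mean by at least two out of four per-plate statistical tests; weak candidates meet just one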
- Meaning of the calls: active = candidate regulator (raises or lowers reporter); inactive = not a candidate
The deposit covers about 22,000 reagents; this is a random part of those with a known target gene and a result. Of all reagents, 233 (1.1%) are marked active. 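Light values are raw, unnormalised plate reads; the ratio scores behind the reporter calls were not deposited.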 Entries without a mark were called inactive. A plus sign joins genes that one reagent is predicted to hit. Not stated in the record: the amount of reagent, the time to read-out, the dose of the treatment.

| Gene | DRSC id | reporter change call, replicate 1 | firefly reporter light, replicate 1 | firefly reporter light, replicate 2 | Renilla control light, replicate 1 | Renilla control light, replicate 2 |
| --- | --- | --- | --- | --- | --- | --- |
| emb | DRSC03528 | Wg reporter activity raised (active) | 34393 | – | 4448 | – |
| CG14683 | DRSC17035 | – | 4077 | – | 1568 | – |
| CG16700 | DRSC19755 | – | 18357 | – | 7895 | – |
| Sox21a | DRSC10819 | – | 6896 | – | 2710 | – |
| crol | DRSC03514 | Wg reporter activity raised (active) | 46548 | – | 1916 | – |
| crol | DRSC21348 | – | 1.26e6 | 1.46e6 | 2.61e5 | 2.23e5 |
| CG33322 | DRSC03204 | – | 2293 | 6392 | 593 | 2515 |
| Trpml + CG42638 | DRSC11032 | – | 2771 | – | 1936 | – |
| CG33061 | DRSC09938 | – | 6592 | – | 3718 | – |
| CG33061 | DRSC22897 | – | 4.38e5 | 4.30e5 | 1.91e5 | 1851 |
| CG13607 | DRSC14610 | – | 25626 | – | 19641 | – |
| Bub1 | DRSC02357 | Wg reporter activity raised (active) | 28913 | – | 3084 | – |
| sff | DRSC10590 | – | 5916 | – | 1899 | – |
| CG13587 | DRSC04223 | – | 2658 | 6861 | 901 | 2596 |
| Hmx | DRSC15307 | – | 12696 | – | 4848 | – |
| Hmx | DRSC15884 | – | 25563 | – | 8032 | – |
| Hmx | DRSC16706 | – | 20848 | – | 4153 | – |
| Hmx | DRSC22799 | – | 9.94e5 | 1.02e6 | 1.73e5 | 2.95e5 |
| Prp6 | DRSC10724 | – | 7620 | – | 3376 | – |
| Prp6 | DRSC21773 | – | 3.35e5 | 3.51e5 | 1.16e5 | 1.09e5 |
| CG3558 | DRSC00615 | – | 14300 | – | 4856 | – |
| Met | DRSC20284 | – | 15254 | – | 8003 | – |
| ftz | DRSC12626 | – | 19793 | – | 6672 | – |
| gus | DRSC04885 | – | 19494 | – | 7532 | – |
| gus | DRSC04886 | – | 3162 | 5920 | 395 | 2026 |
| CG12155 | DRSC17826 | – | 1808 | 8496 | 746 | 2205 |
| Krn | DRSC11202 | – | 6791 | – | 2538 | – |
| CG18371 | DRSC06733 | – | 7280 | – | 2432 | – |
| ci | DRSC17172 | – | 15253 | – | 15008 | – |
| twe | DRSC03628 | – | 5701 | – | 2368 | – |
| CG12084 | DRSC08247 | – | 25696 | – | 5920 | – |
| Picot | DRSC07508 | – | 18061 | – | 5401 | – |
| Vps33B | DRSC15722 | – | 3687 | 4050 | 1836 | 753 |
| CG32026 | DRSC08950 | – | 2726 | – | 994 | – |
| CG30345 | DRSC05144 | – | 12440 | – | 5915 | – |
| CG33981 + fab1 | DRSC07412 | – | 13336 | – | 5026 | – |
| CG5854 | DRSC15894 | – | 4679 | – | 1836 | – |
| Cpr76Bb | DRSC11061 | – | 20512 | – | 5833 | – |
| Cpr76Bb | DRSC22870 | – | 6.76e5 | 7.32e5 | 2.90e5 | 3.79e5 |
| BEAF-32 + CG42254 (retired record) | DRSC05503 | – | 21905 | – | 17910 | – |
| sncRNA:430e + His2A:CG33859 + His2A:CG33817 + 37 more | DRSC21264 | – | 20937 | – | 4422 | – |
| CG10738 | DRSC09792 | – | 4492 | – | 2139 | – |
| pcx | DRSC18186 | – | 17811 | – | 14416 | – |
| pcx | DRSC18187 | – | 23125 | – | 20185 | – |
| pcx | DRSC18188 | – | 19065 | – | 14578 | – |
| pcx | DRSC18189 | – | 16813 | – | 15094 | – |
| pcx | DRSC18190 | – | 29136 | – | 15858 | – |
| pcx | DRSC18816 | – | 4445 | 11368 | 1616 | 3979 |
| CG43078 | DRSC10292 | – | 4160 | – | 1362 | – |
| CG43078 | DRSC10608 | – | 4659 | – | 2681 | – |
| CG43078 | DRSC21541 | – | 4.09e5 | 4.84e5 | 2.23e5 | 1.58e5 |
| CG43078 | DRSC22327 | – | 4.20e5 | 4.44e5 | 2.08e5 | 2.21e5 |
| CG31659 | DRSC00760 | – | 3024 | 8400 | 1426 | 3368 |
| RpS10b | DRSC19561 | – | 18145 | – | 10053 | – |
| PCID2 | DRSC10822 | – | 2345 | – | 1265 | – |
| Hesr | DRSC19965 | – | 22202 | – | 10182 | – |
| wun2 | DRSC07566 | – | 3425 | 11660 | 1186 | 4424 |
| Sgp | DRSC02195 | – | 8045 | – | 2033 | – |
| wds | DRSC18852 | – | 15521 | – | 6802 | – |
| CG6788 + CR32496 | DRSC22043 | – | 4.23e5 | 4.67e5 | 2.19e5 | 1.98e5 |
| CG3163 | DRSC04341 | – | 9080 | – | 2614 | – |
| CG44098 | DRSC12214 | – | 16213 | 6.87e5 | 5075 | 3.35e5 |
| CG44098 | DRSC12240 | – | 7858 | – | 2825 | – |
| CG44098 | DRSC12327 | – | 16983 | – | 5120 | – |
| PRL-1 | DRSC03393 | – | 3523 | 7393 | 1721 | 2901 |
| TBC1d7 + mRpS24 | DRSC14611 | – | 17973 | – | 14388 | – |
| pygo | DRSC14322 | Wg reporter activity lowered (active) | 998 | 2117 | 1193 | 2119 |
| CG15221 | DRSC19659 | – | 14379 | – | 8005 | – |
| CG42537 | DRSC12519 | – | 13988 | – | 4611 | – |
| ppk5 | DRSC11492 | – | 5041 | – | 1782 | – |
| Mdr49 | DRSC07466 | Wg reporter activity lowered | 12427 | – | 4944 | – |
| sgll | DRSC15442 | – | 13767 | – | 4020 | – |
| CG42450 | DRSC20022 | – | 14376 | – | 9079 | – |
| CG42450 | DRSC22751 | – | 4.31e5 | 5.31e5 | 1.89e5 | 2.03e5 |

Called active, among the entries above:
| Gene | DRSC id | reporter change call, replicate 1 | firefly reporter light, replicate 1 | firefly reporter light, replicate 2 | Renilla control light, replicate 1 | Renilla control light, replicate 2 |
| --- | --- | --- | --- | --- | --- | --- |
| emb | DRSC03528 | Wg reporter activity raised (active) | 34393 | – | 4448 | – |
| crol | DRSC03514 | Wg reporter activity raised (active) | 46548 | – | 1916 | – |
| Bub1 | DRSC02357 | Wg reporter activity raised (active) | 28913 | – | 3084 | – |
| pygo | DRSC14322 | Wg reporter activity lowered (active) | 998 | 2117 | 1193 | 2119 |
